In the supplement of paper PMC7661543:
The effect of the compound repeats well; differences between the knockouts mostly do not.

Tested on: MDA-MB-231
Test: relative cell number vs DMSO control (72 h) (% of DMSO); higher = less growth inhibition (more cells)
Protocol: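 QMAP-Seq: a pool of 5 breast cancer cell lines (ZR-75-1, SKBR3, HCC-38, MDA-MB-231, BT-20), each carrying 12 doxycycline-inducible Cas9 sgRNA perturbations (11 knockouts plus non-targeting sgNT), was treated with compounds for 72 h at four 10-fold doses (10 nM-10 uM or 1 nM-1 uM range). Barcodes were amplified and sequenced, and cell number was interpolated from 293T spike-in standard curves. The result is expressed as % of the median of DMSO wells. Two biological replicates.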

Cc1cn(-c2cc(NC(=O)c3ccc(C)c(Nc4nccc(-c5cccnc5)n4)c3)cc(C(F)(F)F)c2)cn1 [Nilotinib]
Details | relative cell number
sgRNA knockout: sgATF3, 10 nM | 92.6
sgRNA knockout: sgATF3, 100 nM | 88.1
sgRNA knockout: sgATF3, 1000 nM | 96.1
sgRNA knockout: sgATF3, 10000 nM | 61.5
sgRNA knockout: sgATF4, 10 nM | 95.7
sgRNA knockout: sgATF4, 100 nM | 101
sgRNA knockout: sgATF4, 1000 nM | 91.4
sgRNA knockout: sgATF4, 10000 nM | 59.8
sgRNA knockout: sgATF6, 10 nM | 67
sgRNA knockout: sgATF6, 100 nM | 93.1
sgRNA knockout: sgATF6, 1000 nM | 110
sgRNA knockout: sgATF6, 10000 nM | 60.4
sgRNA knockout: sgATG7, 10 nM | 84.3
sgRNA knockout: sgATG7, 100 nM | 90.1
sgRNA knockout: sgATG7, 1000 nM | 101
sgRNA knockout: sgATG7, 10000 nM | 53.5
sgRNA knockout: sgERN1, 10 nM | 74.1
sgRNA knockout: sgERN1, 100 nM | 89.9
sgRNA knockout: sgERN1, 1000 nM | 82.3
sgRNA knockout: sgERN1, 10000 nM | 62.8
sgRNA knockout: sgHSF1, 10 nM | 85
sgRNA knockout: sgHSF1, 100 nM | 87
sgRNA knockout: sgHSF1, 1000 nM | 61.8
sgRNA knockout: sgHSF1, 10000 nM | 76.7
sgRNA knockout: sgHSF2, 10 nM | 84.9
sgRNA knockout: sgHSF2, 100 nM | 106
sgRNA knockout: sgHSF2, 1000 nM | 86.3
sgRNA knockout: sgHSF2, 10000 nM | 60.7
sgRNA knockout: sgKEAP1, 10 nM | 89.9
sgRNA knockout: sgKEAP1, 100 nM | 94.1
sgRNA knockout: sgKEAP1, 1000 nM | 69.9
sgRNA knockout: sgKEAP1, 10000 nM | 58.9
sgRNA knockout: sgNFE2L2, 10 nM | 68.9
sgRNA knockout: sgNFE2L2, 100 nM | 98.1
sgRNA knockout: sgNFE2L2, 1000 nM | 85.5
sgRNA knockout: sgNFE2L2, 10000 nM | 53.2
sgRNA knockout: sgSLC35F2, 10 nM | 100
sgRNA knockout: sgSLC35F2, 100 nM | 108
sgRNA knockout: sgSLC35F2, 1000 nM | 83.6
sgRNA knockout: sgSLC35F2, 10000 nM | 69.2
sgRNA knockout: sgXBP1, 10 nM | 95.2
sgRNA knockout: sgXBP1, 100 nM | 113.7
sgRNA knockout: sgXBP1, 1000 nM | 89.7
sgRNA knockout: sgXBP1, 10000 nM | 53.6

O=C(c1cc(Cc2n[nH]c(=O)c3ccccc23)ccc1F)N1CCN(C(=O)C2CC2)CC1 [Olaparib]
Details | relative cell number
sgRNA knockout: sgATF3, 10 nM | 85.5
sgRNA knockout: sgATF3, 100 nM | 86.6
sgRNA knockout: sgATF3, 1000 nM | 104
sgRNA knockout: sgATF3, 10000 nM | 56.2
sgRNA knockout: sgATF4, 10 nM | 91.6
sgRNA knockout: sgATF4, 100 nM | 100
sgRNA knockout: sgATF4, 1000 nM | 76.6
sgRNA knockout: sgATF4, 10000 nM | 64.2
sgRNA knockout: sgATF6, 10 nM | 88.6
sgRNA knockout: sgATF6, 100 nM | 93.5
sgRNA knockout: sgATF6, 1000 nM | 81.2
sgRNA knockout: sgATF6, 10000 nM | 80.2
sgRNA knockout: sgATG7, 10 nM | 100
sgRNA knockout: sgATG7, 100 nM | 84.6
sgRNA knockout: sgATG7, 1000 nM | 77.5
sgRNA knockout: sgATG7, 10000 nM | 71.6
sgRNA knockout: sgERN1, 10 nM | 103
sgRNA knockout: sgERN1, 100 nM | 97.7
sgRNA knockout: sgERN1, 1000 nM | 81.4
sgRNA knockout: sgERN1, 10000 nM | 64.9
sgRNA knockout: sgHSF1, 10 nM | 109
sgRNA knockout: sgHSF1, 100 nM | 86.8
sgRNA knockout: sgHSF1, 1000 nM | 55.8
sgRNA knockout: sgHSF1, 10000 nM | 69.5
sgRNA knockout: sgHSF2, 10 nM | 112
sgRNA knockout: sgHSF2, 100 nM | 82.1
sgRNA knockout: sgHSF2, 1000 nM | 96.2
sgRNA knockout: sgHSF2, 10000 nM | 78.2
sgRNA knockout: sgKEAP1, 10 nM | 101
sgRNA knockout: sgKEAP1, 100 nM | 81.1
sgRNA knockout: sgKEAP1, 1000 nM | 90.1
sgRNA knockout: sgKEAP1, 10000 nM | 74.8
sgRNA knockout: sgNFE2L2, 10 nM | 76.1
sgRNA knockout: sgNFE2L2, 100 nM | 91.5
sgRNA knockout: sgNFE2L2, 1000 nM | 77.1
sgRNA knockout: sgNFE2L2, 10000 nM | 73
sgRNA knockout: sgSLC35F2, 10 nM | 115
sgRNA knockout: sgSLC35F2, 100 nM | 81.8
sgRNA knockout: sgSLC35F2, 1000 nM | 104
sgRNA knockout: sgSLC35F2, 10000 nM | 73.2
sgRNA knockout: sgXBP1, 10 nM | 78.8
sgRNA knockout: sgXBP1, 100 nM | 112
sgRNA knockout: sgXBP1, 1000 nM | 81.7
sgRNA knockout: sgXBP1, 10000 nM | 58.7

CCCS(=O)(=O)Nc1ccc(F)c(C(=O)c2c[nH]c3ncc(Cl)cc23)c1F [PLX4720]
Details | relative cell number
sgRNA knockout: sgATF3, 10 nM | 92.2
sgRNA knockout: sgATF3, 100 nM | 72.2
sgRNA knockout: sgATF3, 1000 nM | 96.8
sgRNA knockout: sgATF3, 10000 nM | 101
sgRNA knockout: sgATF4, 10 nM | 133
sgRNA knockout: sgATF4, 100 nM | 90
sgRNA knockout: sgATF4, 1000 nM | 83.7
sgRNA knockout: sgATF4, 10000 nM | 113
sgRNA knockout: sgATF6, 10 nM | 92.9
sgRNA knockout: sgATF6, 100 nM | 88.5
sgRNA knockout: sgATF6, 1000 nM | 131
sgRNA knockout: sgATF6, 10000 nM | 86.1
sgRNA knockout: sgATG7, 10 nM | 106
sgRNA knockout: sgATG7, 100 nM | 78.8
sgRNA knockout: sgATG7, 1000 nM | 123
sgRNA knockout: sgATG7, 10000 nM | 102
sgRNA knockout: sgERN1, 10 nM | 85
sgRNA knockout: sgERN1, 100 nM | 105
sgRNA knockout: sgERN1, 1000 nM | 90.4
sgRNA knockout: sgERN1, 10000 nM | 92.3
sgRNA knockout: sgHSF1, 10 nM | 98.7
sgRNA knockout: sgHSF1, 100 nM | 82.5
sgRNA knockout: sgHSF1, 1000 nM | 108
sgRNA knockout: sgHSF1, 10000 nM | 86.9
sgRNA knockout: sgHSF2, 10 nM | 105.92
sgRNA knockout: sgHSF2, 100 nM | 89.8
sgRNA knockout: sgHSF2, 1000 nM | 72
sgRNA knockout: sgHSF2, 10000 nM | 93.5
sgRNA knockout: sgKEAP1, 10 nM | 101
sgRNA knockout: sgKEAP1, 100 nM | 120
sgRNA knockout: sgKEAP1, 1000 nM | 76.8
sgRNA knockout: sgKEAP1, 10000 nM | 116
sgRNA knockout: sgNFE2L2, 10 nM | 97.4
sgRNA knockout: sgNFE2L2, 100 nM | 111
sgRNA knockout: sgNFE2L2, 1000 nM | 95.1
sgRNA knockout: sgNFE2L2, 10000 nM | 97.3
sgRNA knockout: sgSLC35F2, 10 nM | 97.2
sgRNA knockout: sgSLC35F2, 100 nM | 96.9
sgRNA knockout: sgSLC35F2, 1000 nM | 121
sgRNA knockout: sgSLC35F2, 10000 nM | 108
sgRNA knockout: sgXBP1, 10 nM | 85
sgRNA knockout: sgXBP1, 100 nM | 95.6
sgRNA knockout: sgXBP1, 1000 nM | 87.7
sgRNA knockout: sgXBP1, 10000 nM | 94
